Laboratory results from the supplement of paper PMC3334620.
In all, about 33,000 sequences were measured (“E-score (-0.5 to 0.5)”: median about -0.0014, highest 2% from about 0.25 on). Some of the results follow.

These sequences were tested against T1, Cad1 (UniProt P24813) (assay: PBM E-score (8-mer binding enrichment) (E-score (-0.5 to 0.5)); higher = stronger / more preferred TF binding). Conditions: protein concentration: 100 nM; construct: GST-full length.
T1 sequence: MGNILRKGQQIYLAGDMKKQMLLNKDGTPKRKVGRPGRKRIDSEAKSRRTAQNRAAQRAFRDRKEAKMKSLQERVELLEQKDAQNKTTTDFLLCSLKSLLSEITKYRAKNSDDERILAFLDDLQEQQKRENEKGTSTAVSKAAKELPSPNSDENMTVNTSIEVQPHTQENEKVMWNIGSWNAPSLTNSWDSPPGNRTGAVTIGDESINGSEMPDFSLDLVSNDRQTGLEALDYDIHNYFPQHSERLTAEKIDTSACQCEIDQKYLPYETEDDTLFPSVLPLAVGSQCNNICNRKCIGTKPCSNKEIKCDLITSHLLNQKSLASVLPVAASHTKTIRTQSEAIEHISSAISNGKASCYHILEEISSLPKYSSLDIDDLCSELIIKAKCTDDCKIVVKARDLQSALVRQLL
Protocol: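 Universal 'all 10-mer' protein binding microarrays (Agilent AMADID 015681) probed with GST-tagged S. cerevisiae TFs (full-length or DBD) made by in vitro transcription/translation (PURExpress), about 100-200 nM. Bound TF was detected with fluorescent anti-GST. Each ungapped 8-mer (which stands for itself and its reverse complement) is scored by the PBM enrichment score (E-score), a modified Wilcoxon-Mann-Whitney statistic from -0.5 to +0.5, computed with the Universal PBM Analysis Suite. Scale: above 0.35 generally sequence-specific binding.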

Sequence | PBM E-score
CTGTCTTC | -0.0664
CAAAGCAC | -0.138
ACTTCGGG | -0.00844
AAAGTCCC | -0.0531
GGGGATCA | -0.181
CAACAGCC | 0.0927
CCGGTACA | 0.0785
ATGTCATC | 0.0733
CACGAAGA | 0.0416
ACAGGTGC | -0.178
ACTGATGG | 0.0288
AGTGCCAG | -0.154
ACGGGCGA | -0.108
ACGTAGTA | 0.119
GACGAATA | 0.177
CGTACAGA | -0.00856
ATCTTCAA | 0.0779
AATATGAG | 0.0594
AAGGAATG | -0.0319
ACCTCAGC | -0.00107
CTTGCCGA | 9e-05
ATAACCTA | -0.082
CCGCACCG | 0.00335
ATTAGCTC | -0.0317
ACACGCTC | 0.119

Sequence | PBM E-score
GGGGCGCA | -0.139
ACATTGAA | 0.168
ATCTAGCC | -0.0552
CAGACTCG | -0.105
GGGCCTGA | -0.228
CACTCGCC | 0.0273
AGGGCATG | -0.0681
AGCCTACA | -0.0553
ACCGTGAA | 0.0213
AGGTATAT | 0.126
ACAAGCCT | 0.0178
GGTAGCTA | -0.0538
TAGTGACA | 0.144
AGATAAGG | -0.165
AGGGGATC | -0.178
ATTGTCAG | 0.306
AGCGACCC | -0.18
GTCTGCAA | -0.0949
AGCCGCAG | -0.121
GAGAGACA | -0.222
CGTAATCC | 0.191
ACTGTACC | -0.0695
ACGCTTAG | 0.0453
AATCGTCT | 0.00483
AGACTACA | -0.0813

An excerpt of these results, in CSV form:
Sequence,PBM E-score
AGCCTACA,-0.0553
ACCGTGAA,0.0213
AGGTATAT,0.126

Continuation.

Sequence | PBM E-score
CAGGTTCG | -0.195
AGTGTATG | -0.0227
AGGCGTCA | -0.163
TTAAGTAA | 0.168
CTAAGGAC | 0.074
ATTTATGC | -0.0649
GACAAAAC | 0.0998
CGGGGACC | -0.0966
AAGCATTC | 0.0284
ATTCCGAG | 0.164
AATACGTC | 0.0601
CTTACGCA | 0.0493
CGGAGGCC | -0.096
CACTGGCA | -0.0733
TCATACAA | 0.0937
CCAGCTCG | 0.00428
ATATTCTG | 0.166
CTATTGAA | 0.0338
ACTTGTCC | 0.0559
ATTACATC | 0.209
ATTAGCGA | 0.0341
CTAAGGTA | 0.0915
AAATGCTA | 0.0591
AACGGGCA | -0.125
AGAATATA | 0.163

Sequence | PBM E-score
AATGCATC | 0.127
GGCCGACC | -0.209
TATGCAAA | 0.00688
ACGATTCA | 0.00026
AGGGTAAT | -0.0176
CGCTCCCC | -0.329
TCCTCAAA | -0.166
ATATATGG | 0.162
ACCATATC | -0.0954
AGGTTAAA | -0.0538
CGAGGGCG | -0.11
ACACAGAC | 0.223
GCAGTTCC | -0.0503
AGTACATA | 0.104
ATTCTCAA | 0.0851
CAGCTTGA | -0.0591
AGTCTAAG | 0.118
CTAGTTGA | 0.144
CCCTGTAA | 0.0594
CCTCGTCA | 0.121
ACTCAGTG | -0.154
AATTAGAG | 0.0346
AAAAAGCT | -0.148
CTCACTAC | 0.126
CTGCTGCA | 0.00759

Sequence | PBM E-score
CGCAGAAC | 0.164
CATTTCGG | -0.16
GAAACACA | 0.148
GACCCATC | -0.134
CAGCGACA | -0.195
CGCGGAAA | 0.073
ACGGATAA | 0.0973
CCACTTCC | 0.0518
AGTTTGAC | 0.0385
ATCAAGAC | 0.128
AACTTTGA | 0.041
AGGAAAGA | -0.168
ACCCGTCG | -0.185
CGCATCTC | -0.014
AGCACTCG | -0.0211
AGTCCTGG | -0.164
CCATCCTC | -0.233
TCCTCGCA | -0.189
CAAAGATG | -0.0448
ATGGAAAG | 0.00711
GCAACCGC | 0.0144
ACGCAAGA | 0.202
GATTGGAA | -0.0305
GATACTAA | 0.115
AAGTCATA | 0.0807

Sequence | PBM E-score
GTCTCACA | -0.103
AGAGGGGA | -0.244
AACCGGCG | 0.145
CCGTTTCA | 0.00431
ACAGGTTG | -0.0536
CCACGCTA | -0.0319
CAGTGTCA | -0.0188
TACATAGA | 0.0928
AGCCTCCG | -0.0822
CTCTACGA | -0.0698
AAGGGACC | -0.0911
AACGAAAT | 0.303
AGGCAACT | 0.0575
TATCCTCA | 0.0395
AGAATGGC | 0.00752
CAACCGAA | 0.168
ACAACACA | 0.0813
GCGGGTAC | 0.0345
ACGGTAAG | 0.00529
ACAGCCAT | -0.0707
AAGAAAGC | -0.0475
AACTCCGT | 0.0805
AGTTCGAT | -0.0629
AATGGGGG | -0.423
CTGGCTCC | -0.25

Sequence | PBM E-score
AGAGCCTC | -0.247
CAGAGTAA | -0.24
ACGGGAAG | -0.148
GTTCCTTA | 0.0781
CAGAGATA | 0.109
AATGCGTC | 0.0515
CGGCTACC | 0.00621
AGAGGCAG | -0.126
AATAGTGA | 0.174
AGCACGTG | 0.179
AGGGAGTG | -0.287
ACTAGCCC | -0.0332
TCATCGCA | 0.0219
CCAGGAAG | -0.131
GCTAGTAC | -0.0457
AACTGTAT | 0.0468
CCTCATAG | -0.0698
ATACGCCG | -0.161
ATACCTAA | 0.227
TATAAATA | 0.25
GGGTTTAC | -0.0872
CTGAGACC | -0.19

Five neighbouring entries already listed, for reference:
Sequence | PBM E-score
AGCACGTG | 0.179
AGGGAGTG | -0.287
ACTAGCCC | -0.0332
TCATCGCA | 0.0219
CCAGGAAG | -0.131
